This is an account of results in article doi:10.1101/2023.09.08.556779, “Molecular model of a bacterial flagellar motor in situ reveals a “parts-list” of protein adaptations to increase torque” (bioRxiv, 2024).

Sequences of proteins named here, by UniProt entry; tags and fusion partners are left off. A change or cut given only in a name is not applied to a line headed by its entry.
UniProt Q0PA06: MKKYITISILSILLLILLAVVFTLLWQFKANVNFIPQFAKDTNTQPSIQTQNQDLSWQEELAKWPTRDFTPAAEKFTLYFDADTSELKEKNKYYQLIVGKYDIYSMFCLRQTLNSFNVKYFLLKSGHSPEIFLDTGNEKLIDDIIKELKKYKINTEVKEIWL

No constants are given. Whether binding was seen depends on the method and setting. In cells and extracts the contact can be indirect. Binding can be weak; no strength is given. Where a sequence is shown, tags or fusion partners need not be part of it.

The test addresses T1, PflB-3xFLAG (C. jejuni NCTC11168).
T1 sequence: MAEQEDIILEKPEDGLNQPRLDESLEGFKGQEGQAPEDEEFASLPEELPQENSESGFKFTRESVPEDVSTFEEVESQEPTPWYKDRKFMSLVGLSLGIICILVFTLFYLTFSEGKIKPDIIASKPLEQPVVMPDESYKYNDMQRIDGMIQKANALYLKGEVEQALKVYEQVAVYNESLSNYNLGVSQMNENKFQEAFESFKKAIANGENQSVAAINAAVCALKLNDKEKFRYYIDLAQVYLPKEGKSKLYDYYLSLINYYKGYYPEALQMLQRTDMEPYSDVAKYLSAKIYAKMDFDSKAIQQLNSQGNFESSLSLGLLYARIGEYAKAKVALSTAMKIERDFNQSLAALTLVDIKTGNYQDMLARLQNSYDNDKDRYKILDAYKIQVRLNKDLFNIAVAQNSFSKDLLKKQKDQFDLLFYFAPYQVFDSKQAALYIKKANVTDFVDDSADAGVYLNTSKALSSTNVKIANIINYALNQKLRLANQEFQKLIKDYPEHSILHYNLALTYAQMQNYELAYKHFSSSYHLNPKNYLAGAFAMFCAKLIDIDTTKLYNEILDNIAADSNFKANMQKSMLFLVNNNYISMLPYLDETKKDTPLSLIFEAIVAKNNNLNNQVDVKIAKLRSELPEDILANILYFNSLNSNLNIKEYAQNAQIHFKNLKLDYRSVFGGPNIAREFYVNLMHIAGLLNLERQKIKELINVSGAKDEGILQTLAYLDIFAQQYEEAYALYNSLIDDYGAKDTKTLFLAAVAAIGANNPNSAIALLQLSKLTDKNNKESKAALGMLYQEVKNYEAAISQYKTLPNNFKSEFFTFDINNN
Description: co-IP; C. jejuni NCTC11168 with chromosomal 3xFLAG fusions; cleared lysate (buffer A with Triton X-100), anti-FLAG antibody and Protein A-Sepharose, 4 C; western blot with FlgP antisera or anti-GFP.

In the case of PflD-sfGFP (from UniProt Q0PA06), the binding result was “binds”.
